Results are given in words; binding and its absence hold for the method and conditions named. In cells and extracts the contact can be indirect. Some entries that bind do so weakly or less than the wild type.
Biological target: RabGEF1 (rat, endogenous in PC12 cells) (rat (endogenous in PC12))
Experiment: co-IP; PC12 cell lysates (0.5% Triton-X in PSB), NGF for 0, 0.5 or 1.0 hour; immunoprecipitation with anti-RabGEF1 or anti-NR2B antibody, Protein A/G agarose, Western blot; rabbit IgG as negative control

Binder	binding
SynGAP (rat, endogenous in PC12 cells) (protein, UniProt Q9QUH6 1-1308) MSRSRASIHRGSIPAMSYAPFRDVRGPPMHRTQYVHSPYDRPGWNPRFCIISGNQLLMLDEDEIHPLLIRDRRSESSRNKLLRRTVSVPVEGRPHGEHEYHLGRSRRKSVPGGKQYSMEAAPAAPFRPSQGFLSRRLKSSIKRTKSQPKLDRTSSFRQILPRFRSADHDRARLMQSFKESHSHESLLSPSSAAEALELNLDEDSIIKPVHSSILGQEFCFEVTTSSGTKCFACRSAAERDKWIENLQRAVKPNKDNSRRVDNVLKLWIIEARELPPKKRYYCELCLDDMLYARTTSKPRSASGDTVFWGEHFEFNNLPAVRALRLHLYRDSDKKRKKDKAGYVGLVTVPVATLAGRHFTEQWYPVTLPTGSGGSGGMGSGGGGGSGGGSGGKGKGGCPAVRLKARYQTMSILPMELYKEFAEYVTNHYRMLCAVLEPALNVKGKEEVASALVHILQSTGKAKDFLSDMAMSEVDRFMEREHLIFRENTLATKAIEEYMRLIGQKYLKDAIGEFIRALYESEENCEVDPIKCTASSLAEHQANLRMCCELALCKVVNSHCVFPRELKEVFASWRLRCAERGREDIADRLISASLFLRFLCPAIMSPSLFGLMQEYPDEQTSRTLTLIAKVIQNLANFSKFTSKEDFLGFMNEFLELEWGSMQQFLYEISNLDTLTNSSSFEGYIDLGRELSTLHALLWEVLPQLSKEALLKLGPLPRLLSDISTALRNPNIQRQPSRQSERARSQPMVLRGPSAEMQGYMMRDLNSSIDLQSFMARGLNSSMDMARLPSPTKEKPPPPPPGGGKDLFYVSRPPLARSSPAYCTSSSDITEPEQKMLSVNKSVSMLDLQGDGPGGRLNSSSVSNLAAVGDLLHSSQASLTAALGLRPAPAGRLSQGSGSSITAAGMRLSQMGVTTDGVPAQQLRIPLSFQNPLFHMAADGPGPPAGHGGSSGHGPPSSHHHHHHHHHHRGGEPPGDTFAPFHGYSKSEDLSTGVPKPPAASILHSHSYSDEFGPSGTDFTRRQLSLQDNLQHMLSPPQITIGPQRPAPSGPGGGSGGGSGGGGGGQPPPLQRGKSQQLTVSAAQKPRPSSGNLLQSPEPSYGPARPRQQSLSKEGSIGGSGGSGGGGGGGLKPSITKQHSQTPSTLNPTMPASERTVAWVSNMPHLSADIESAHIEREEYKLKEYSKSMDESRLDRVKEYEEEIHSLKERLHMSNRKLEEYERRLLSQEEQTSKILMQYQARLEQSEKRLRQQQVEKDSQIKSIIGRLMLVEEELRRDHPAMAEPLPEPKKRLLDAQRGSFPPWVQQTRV	binds
Rabaptin-5 (rat, endogenous in PC12 cells) (protein, UniProt O35550 1-862) MAQPGPAPQPDVSLQQRVAELEKINAEFLRAQQQLEQEFNQKRAKFKELYLAKEEDLKRQNAVLQAAQDDLGHLRTQLWEAQAEMENIKAIATVSENTKQEAIDEVKRQWREEVASLQAVMKETVRDYEHQFHLRLEQERAQWAQYRESADREIADLRRRLSEGQEEENLENEMKKAQEDAEKLRSVVMPMEKEIAALKDKLTEAEDKIKELEASKVKELNHYLEAEKSCRTDLEMYVAVLNTQKSVLQEDAEKLRKELHEVCHLLEQERQQHNQLKHTWQKANDQFLESQRLLMRDMQRMEIVLTSEQLRQVEELKKKDQEEDEQQRINKGKDNKKIDTEEEVKIPVVCALTQEESSTPLSNEEEHLDSTHGSVHSLDADLLLPSGDPFSKSDNDMFKEGLRRAQSTDSLGTSSSLQSKALGYNYKAKSAGNLDESDFGPLVGADSVSENFDTVSLGSLQMPSGFMLTKDQERAIKAMTPEQEETASLLSSVTQGMESAYVSPSGYRLVSETEWNLLQKEVHNAGNKLGRRCDMCSNYEKQLQGIQIQEAETRDQVKKLQLMLRQANDQLEKTMKEKQELEDFLRQSAEDSSHQISALVLRAQASEVLLEELQQSFSQAKRDVQEQMAVLMQSREQVSEELVRLQKDNDSLQGKHSLHVSLQLAEDFILPDTVQVLRELVLKYRENIVHVRTAADHMEEKLKAEILFLKEQIQAEQCLKENLEETLQLEIENCKEEIASISSLKAELERIKVEKGQLESTLREKSQQLESLQEIKVNLEEQLKKETAAKATVEQLMFEEKNKAQRLQTELDVSEQVQRDFVKLSQTLQVQLERIRQADSLERIRAILNDTKLTDINQLPET	binds

Source: PMC4654474
